One molecule from PMC10011063 can be followed below.

Sequences of proteins named here, by UniProt entry; tags and fusion partners are left off.
UniProt P63016: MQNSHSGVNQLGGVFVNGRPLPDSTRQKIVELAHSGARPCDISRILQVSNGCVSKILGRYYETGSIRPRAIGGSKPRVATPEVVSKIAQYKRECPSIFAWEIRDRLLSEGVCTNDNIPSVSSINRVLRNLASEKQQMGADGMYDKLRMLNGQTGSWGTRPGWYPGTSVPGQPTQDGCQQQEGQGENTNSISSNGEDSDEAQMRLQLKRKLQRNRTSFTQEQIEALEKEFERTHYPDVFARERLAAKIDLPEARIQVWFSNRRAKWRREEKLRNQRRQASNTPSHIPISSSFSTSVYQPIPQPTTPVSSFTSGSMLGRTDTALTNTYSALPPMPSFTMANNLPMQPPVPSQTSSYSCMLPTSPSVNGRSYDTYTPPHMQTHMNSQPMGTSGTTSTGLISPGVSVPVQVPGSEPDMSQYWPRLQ

These are yes or no findings as the source states them, for the method shown. In cells and extracts the contact can be indirect. A yes stands for co-enrichment or nearness to the bait. Other partners may have been found.

This assay has as its target Paired Box 6 (PAX6) (rat (endogenous in cultured NSCs)) (UniProt P63016). The assay is described as follows: affinity purification with mass spectrometry; immunoprecipitate of PAX6 from NSCs, gel pieces digested with trypsin, LC-MS/MS, Mascot search of a rat protein database.

B1: ring finger protein 8 (RNF8) (enzyme, UniProt Q4KLN8 1-487)
chain: MGEPDPLVSGQLAARRSWCLRRLGMDREWLQLEAGSEVTIGRGFSVTYQLISKVCPLMISRNHCVLKQNPEGQWTIMDNKSLNGVWLNRERLAPLQGYCIRKGDHIQLGVPLESKEHAEYEYEVIEEDRESLAPCLAPKNDHTTEKHKGLRTKRKFSSDGVESLPAEGPSDLRCPLAKGSSKPAEPEKLHGKGEAASQPLGCLCPTLASLEASERTAGPHACSTLPKVLELYPKKQKACSPSASQSSLELFKMTMSRMLKLKTQMQEKQIAVLNVKRQARKGSSKKVVRMEKELRDLQSQLYAEQAQQQARVEQLEKTFQEEEQHLQGLEKEQGECDLKQQLLQALQEHRALMEELDRSKKDFEKIIQAKNKELERTKEEKDKVQAQKEEVLSHMNDVLENELQCIICSEYFIEAVTLNCAHSFCSFCISEWMKRKVECPICRKDIESRTNSLVLDNCISKMVERLSSDVKERRSVLIRERRAKRLL
Regarding B1, the binding result is recorded as “binds”.
